Results are given in words; binding and its absence hold for the method and conditions named. Binding seen in cells or lysates may run through a third protein. These calls come from enrichment with a bait or labelling near it, and not all partners need be listed. Where a sequence is shown, tags or fusion partners need not be part of it.
Molecular target: T1, SEC31A-TurboID-V5 (UniProt O94979)
T1 sequence: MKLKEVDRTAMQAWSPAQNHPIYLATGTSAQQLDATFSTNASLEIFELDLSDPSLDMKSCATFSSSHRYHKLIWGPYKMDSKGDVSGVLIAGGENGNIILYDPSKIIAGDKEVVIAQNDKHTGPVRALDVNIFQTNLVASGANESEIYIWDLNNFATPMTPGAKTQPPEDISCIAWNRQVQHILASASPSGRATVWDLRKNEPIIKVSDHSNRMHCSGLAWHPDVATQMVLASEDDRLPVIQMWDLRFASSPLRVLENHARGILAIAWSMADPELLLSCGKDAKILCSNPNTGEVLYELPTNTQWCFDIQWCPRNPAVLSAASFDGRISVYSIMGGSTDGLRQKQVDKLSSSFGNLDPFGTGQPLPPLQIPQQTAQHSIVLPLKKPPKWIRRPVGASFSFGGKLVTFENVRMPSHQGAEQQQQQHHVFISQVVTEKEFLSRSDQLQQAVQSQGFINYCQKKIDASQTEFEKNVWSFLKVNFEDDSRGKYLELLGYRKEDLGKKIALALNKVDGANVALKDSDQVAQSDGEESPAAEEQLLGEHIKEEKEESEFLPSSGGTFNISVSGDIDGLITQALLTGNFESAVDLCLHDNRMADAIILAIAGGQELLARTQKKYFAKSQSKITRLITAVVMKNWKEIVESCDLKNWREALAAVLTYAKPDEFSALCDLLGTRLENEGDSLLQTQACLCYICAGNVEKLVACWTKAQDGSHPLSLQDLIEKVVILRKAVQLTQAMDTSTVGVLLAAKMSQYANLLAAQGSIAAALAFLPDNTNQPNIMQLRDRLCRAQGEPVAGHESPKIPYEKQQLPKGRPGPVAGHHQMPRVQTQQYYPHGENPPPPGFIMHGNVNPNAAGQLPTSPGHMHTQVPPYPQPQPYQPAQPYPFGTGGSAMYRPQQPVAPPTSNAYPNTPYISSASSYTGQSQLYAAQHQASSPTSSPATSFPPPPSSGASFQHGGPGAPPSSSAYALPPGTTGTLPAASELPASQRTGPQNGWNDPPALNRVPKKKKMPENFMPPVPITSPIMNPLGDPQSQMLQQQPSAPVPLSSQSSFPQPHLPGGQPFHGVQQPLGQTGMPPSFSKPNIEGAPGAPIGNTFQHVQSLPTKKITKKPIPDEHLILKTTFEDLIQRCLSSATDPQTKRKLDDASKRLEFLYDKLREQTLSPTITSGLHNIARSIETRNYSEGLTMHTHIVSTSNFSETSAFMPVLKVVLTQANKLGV
Assay: proximity labelling; SEC31A-TurboID-V5 in HeLa cells, 50 μM biotin for 10 min against no biotin; streptavidin magnetic beads, label-free LC-MS/MS; FC≥4 and p<0.05, n=3

Amino acid sequences for entries named in this document (tags omitted).
UniProt Q9Y2I6: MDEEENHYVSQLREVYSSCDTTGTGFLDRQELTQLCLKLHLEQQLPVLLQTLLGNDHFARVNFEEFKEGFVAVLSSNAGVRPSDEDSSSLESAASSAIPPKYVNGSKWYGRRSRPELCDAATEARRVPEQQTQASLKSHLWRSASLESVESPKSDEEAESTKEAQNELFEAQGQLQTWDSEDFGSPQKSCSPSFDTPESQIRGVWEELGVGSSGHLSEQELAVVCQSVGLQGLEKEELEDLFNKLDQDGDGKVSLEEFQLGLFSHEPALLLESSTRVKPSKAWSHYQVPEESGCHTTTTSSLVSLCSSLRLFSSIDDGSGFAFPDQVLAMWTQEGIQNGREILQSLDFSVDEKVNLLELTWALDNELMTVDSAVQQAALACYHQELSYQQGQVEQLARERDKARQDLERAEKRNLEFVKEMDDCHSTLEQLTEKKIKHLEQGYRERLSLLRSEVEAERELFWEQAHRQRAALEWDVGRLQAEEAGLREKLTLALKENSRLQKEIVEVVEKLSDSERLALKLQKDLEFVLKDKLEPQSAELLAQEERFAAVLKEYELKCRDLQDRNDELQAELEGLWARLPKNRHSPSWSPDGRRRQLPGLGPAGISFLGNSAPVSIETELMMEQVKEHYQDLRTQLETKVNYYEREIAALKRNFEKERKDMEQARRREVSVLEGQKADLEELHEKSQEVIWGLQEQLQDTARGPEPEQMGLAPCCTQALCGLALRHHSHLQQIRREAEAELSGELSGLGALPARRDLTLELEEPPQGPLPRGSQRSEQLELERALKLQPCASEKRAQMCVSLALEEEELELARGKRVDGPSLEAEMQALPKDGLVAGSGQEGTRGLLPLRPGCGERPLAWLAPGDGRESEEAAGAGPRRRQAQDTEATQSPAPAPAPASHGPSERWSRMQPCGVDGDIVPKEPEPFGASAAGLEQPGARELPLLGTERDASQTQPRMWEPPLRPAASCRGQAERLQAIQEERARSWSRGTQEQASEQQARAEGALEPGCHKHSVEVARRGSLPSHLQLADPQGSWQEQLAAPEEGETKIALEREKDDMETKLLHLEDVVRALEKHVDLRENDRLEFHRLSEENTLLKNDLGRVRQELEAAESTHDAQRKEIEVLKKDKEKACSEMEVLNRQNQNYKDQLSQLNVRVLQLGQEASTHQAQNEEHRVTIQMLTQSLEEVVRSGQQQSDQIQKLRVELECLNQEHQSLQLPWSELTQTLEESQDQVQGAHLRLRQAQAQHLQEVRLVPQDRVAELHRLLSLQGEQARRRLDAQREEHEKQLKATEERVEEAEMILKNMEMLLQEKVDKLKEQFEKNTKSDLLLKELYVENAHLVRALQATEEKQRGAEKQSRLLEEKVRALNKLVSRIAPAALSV
UniProt O94973: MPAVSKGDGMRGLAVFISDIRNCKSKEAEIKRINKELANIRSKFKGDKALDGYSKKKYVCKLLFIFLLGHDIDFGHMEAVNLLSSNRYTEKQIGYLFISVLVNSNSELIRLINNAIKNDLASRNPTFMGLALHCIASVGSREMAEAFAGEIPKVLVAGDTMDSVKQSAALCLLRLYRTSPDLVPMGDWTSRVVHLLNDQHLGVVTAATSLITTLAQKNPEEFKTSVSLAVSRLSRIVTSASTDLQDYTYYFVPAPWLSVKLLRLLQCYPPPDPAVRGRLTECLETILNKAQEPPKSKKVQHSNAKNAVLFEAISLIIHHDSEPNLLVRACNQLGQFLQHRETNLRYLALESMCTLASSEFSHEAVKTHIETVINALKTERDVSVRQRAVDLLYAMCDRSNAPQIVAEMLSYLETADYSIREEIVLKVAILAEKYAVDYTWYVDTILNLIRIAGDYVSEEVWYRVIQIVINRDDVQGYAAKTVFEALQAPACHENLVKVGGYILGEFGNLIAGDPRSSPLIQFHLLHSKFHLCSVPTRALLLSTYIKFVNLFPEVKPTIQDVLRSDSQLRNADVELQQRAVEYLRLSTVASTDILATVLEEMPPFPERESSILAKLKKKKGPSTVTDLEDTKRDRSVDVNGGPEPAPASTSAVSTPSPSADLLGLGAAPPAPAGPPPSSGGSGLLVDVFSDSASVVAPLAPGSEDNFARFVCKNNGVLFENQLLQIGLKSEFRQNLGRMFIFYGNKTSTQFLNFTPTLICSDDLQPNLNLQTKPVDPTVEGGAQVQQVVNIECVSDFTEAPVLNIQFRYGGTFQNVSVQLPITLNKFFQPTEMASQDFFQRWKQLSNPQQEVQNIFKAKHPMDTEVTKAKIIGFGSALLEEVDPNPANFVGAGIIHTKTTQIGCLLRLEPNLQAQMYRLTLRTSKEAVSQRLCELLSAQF

Row | binding | Substance
1 | binds | Ninein-like protein (Nlp) (from UniProt Q9Y2I6 1-1382)
2 | binds | AP2A2 (from UniProt O94973 1-939)
